Measurements from PMC3832373.
These are yes or no findings as the source states them, for the method shown. Binding seen in cells or lysates may run through a third protein. Some binding calls cover weakened binding; strength is not graded here.

Chains of the proteins cited; added tags and fusions are not shown.
UniProt O97758: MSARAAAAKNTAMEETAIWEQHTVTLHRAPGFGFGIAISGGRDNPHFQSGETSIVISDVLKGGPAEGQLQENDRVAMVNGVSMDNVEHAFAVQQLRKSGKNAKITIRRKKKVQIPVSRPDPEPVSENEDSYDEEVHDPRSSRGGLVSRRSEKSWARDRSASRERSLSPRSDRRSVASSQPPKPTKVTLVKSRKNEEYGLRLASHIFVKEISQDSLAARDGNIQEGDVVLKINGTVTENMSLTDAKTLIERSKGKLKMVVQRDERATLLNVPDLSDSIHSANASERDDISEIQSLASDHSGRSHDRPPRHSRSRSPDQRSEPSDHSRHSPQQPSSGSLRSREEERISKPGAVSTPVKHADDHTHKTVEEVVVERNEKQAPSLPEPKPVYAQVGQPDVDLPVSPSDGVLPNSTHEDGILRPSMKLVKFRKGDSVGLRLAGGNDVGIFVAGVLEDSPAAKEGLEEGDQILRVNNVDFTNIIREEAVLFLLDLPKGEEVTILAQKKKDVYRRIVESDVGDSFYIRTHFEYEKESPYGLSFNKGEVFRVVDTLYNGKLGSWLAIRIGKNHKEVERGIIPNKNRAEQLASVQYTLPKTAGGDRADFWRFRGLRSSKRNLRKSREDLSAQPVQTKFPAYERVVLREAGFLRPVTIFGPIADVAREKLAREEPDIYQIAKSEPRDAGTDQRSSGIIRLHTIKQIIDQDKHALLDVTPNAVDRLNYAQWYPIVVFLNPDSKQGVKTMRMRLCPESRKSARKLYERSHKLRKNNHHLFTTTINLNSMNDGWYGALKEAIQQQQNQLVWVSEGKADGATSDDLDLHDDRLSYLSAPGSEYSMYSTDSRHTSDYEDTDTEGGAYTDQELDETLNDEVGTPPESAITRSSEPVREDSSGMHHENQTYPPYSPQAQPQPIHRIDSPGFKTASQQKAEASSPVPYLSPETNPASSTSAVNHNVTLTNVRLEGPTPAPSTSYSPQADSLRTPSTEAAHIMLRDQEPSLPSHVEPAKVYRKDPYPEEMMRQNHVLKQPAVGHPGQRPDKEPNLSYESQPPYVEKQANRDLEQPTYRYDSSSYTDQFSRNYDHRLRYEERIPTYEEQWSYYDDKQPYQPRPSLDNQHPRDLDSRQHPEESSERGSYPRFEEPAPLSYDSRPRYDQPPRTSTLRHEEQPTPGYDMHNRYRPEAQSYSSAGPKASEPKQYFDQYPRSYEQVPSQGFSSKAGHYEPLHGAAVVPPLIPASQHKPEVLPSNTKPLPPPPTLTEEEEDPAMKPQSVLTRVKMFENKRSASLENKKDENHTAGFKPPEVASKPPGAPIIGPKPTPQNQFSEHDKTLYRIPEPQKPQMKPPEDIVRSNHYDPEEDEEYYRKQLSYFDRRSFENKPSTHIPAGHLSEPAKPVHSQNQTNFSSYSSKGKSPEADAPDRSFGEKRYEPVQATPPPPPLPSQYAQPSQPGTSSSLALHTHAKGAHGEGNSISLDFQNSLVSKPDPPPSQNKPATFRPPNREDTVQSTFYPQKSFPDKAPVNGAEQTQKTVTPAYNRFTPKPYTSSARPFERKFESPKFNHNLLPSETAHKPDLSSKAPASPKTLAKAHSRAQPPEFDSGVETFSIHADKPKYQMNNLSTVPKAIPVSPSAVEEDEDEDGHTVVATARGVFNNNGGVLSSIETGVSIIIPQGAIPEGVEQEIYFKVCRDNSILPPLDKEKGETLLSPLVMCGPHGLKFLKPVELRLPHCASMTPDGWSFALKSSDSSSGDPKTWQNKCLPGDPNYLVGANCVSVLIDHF

Tests used:
[1] = target: zonula occludens-1 (dog (endogenous in MDCK)) (UniProt O97758); assay: condition: only lysed with 1% SDS, without cross-linker; co-sedimentation; control MDCK monolayer without dithiobis(succinimidyl propionate) treatment, lysed in cosedimentation buffer containing 1% SDS; sucrose gradient centrifugation; fractions immunoblotted
[2] = target: claudin-1 (dog (endogenous in MDCK)); assay: co-sedimentation; MDCK monolayers (ethanol control or 300 µM capsaicin, 1 h) cross-linked with 100 µg/ml dithiobis(succinimidyl propionate), lysed in 0.5% Nonidet P-40, 0.25% Triton X-100; velocity centrifugation on a discontinuous 5-25% sucrose gradient, 200,000×g, 18 h, 4°C; fractions immunoblotted
[3] = target: zonula occludens-1 (dog (endogenous in MDCK)) (UniProt O97758); assay: as above

B1: occludin (protein, UniProt Q28269 1-521)
chain: MSSRPFESPPPYRPDEFKPNHYAPSNDVYGGDMHVRPMLSQPAYSFYPEDEILHFYKWTSPPGVIRILSMLVIVMCIAIFGCVASTLAWDRGYGTGLMGGSIGYPYGSGFGSYGTGYGYGFGYGYGYGGYTDPRAAKGFLLAMVAFCFIAALVIFVTSVIRSDISRTRRYYLTVIILSAFLGVMMFIATIVYIMGVNPTAQASGSLYSSQIYAMCNQFYASTATGLYMDQYLYHYCVVDPQEAIAIVLGFMVIVAFALIIFFAVKTRRKMDRYDKSNILWDKEHIYDEQPPNVEEWVKNVSAGTQDMPPPPSDYVERVDSPMAYSSNGKVNDKRLYPESSYKSTPVPEVVQELPATSPADDFRQPRYSSSGHLEPPSKRAPSKGRTGRPKRLEQDHYETDYTTGGESCDELEEDWIREYPPITSDQQRQLYKRNFDTGLQEYKSLQAELDEINKELSRLDKELDDYREESEEYMAAADEYNRLKQVKGSPDYKNKRNYCKQLKSKLSHIKKMVGDYDRQKT
In the case of B1, the binding [1] is reported as “no binding”, the binding [2] is reported as “binds” and the binding [3] is reported as “binds”.
